Data taken from the supplement of paper PMC10849652.
The list shows a part of the results.

Chains of the proteins cited; added tags and fusions are not shown. Lines headed by an entry give the natural chain unless they say otherwise; changes in a name come on top.
UniProt Q86U42: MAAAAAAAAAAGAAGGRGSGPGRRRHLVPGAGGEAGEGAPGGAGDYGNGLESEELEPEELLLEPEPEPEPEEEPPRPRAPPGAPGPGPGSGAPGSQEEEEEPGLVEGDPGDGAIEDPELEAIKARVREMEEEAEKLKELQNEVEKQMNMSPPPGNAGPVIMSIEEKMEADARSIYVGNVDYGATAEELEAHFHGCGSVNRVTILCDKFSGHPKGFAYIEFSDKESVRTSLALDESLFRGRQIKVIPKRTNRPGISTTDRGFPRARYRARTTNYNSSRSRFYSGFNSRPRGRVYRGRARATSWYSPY
UniProt Q96MG8: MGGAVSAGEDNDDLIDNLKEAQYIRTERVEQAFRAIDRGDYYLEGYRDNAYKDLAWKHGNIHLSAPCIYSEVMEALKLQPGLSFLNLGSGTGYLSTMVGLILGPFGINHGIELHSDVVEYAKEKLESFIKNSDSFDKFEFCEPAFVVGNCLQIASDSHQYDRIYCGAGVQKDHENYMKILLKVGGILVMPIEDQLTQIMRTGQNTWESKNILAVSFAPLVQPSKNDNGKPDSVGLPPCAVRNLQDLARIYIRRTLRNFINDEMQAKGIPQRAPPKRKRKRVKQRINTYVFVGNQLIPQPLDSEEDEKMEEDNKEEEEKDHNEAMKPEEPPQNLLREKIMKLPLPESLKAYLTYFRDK
UniProt Q96RV3: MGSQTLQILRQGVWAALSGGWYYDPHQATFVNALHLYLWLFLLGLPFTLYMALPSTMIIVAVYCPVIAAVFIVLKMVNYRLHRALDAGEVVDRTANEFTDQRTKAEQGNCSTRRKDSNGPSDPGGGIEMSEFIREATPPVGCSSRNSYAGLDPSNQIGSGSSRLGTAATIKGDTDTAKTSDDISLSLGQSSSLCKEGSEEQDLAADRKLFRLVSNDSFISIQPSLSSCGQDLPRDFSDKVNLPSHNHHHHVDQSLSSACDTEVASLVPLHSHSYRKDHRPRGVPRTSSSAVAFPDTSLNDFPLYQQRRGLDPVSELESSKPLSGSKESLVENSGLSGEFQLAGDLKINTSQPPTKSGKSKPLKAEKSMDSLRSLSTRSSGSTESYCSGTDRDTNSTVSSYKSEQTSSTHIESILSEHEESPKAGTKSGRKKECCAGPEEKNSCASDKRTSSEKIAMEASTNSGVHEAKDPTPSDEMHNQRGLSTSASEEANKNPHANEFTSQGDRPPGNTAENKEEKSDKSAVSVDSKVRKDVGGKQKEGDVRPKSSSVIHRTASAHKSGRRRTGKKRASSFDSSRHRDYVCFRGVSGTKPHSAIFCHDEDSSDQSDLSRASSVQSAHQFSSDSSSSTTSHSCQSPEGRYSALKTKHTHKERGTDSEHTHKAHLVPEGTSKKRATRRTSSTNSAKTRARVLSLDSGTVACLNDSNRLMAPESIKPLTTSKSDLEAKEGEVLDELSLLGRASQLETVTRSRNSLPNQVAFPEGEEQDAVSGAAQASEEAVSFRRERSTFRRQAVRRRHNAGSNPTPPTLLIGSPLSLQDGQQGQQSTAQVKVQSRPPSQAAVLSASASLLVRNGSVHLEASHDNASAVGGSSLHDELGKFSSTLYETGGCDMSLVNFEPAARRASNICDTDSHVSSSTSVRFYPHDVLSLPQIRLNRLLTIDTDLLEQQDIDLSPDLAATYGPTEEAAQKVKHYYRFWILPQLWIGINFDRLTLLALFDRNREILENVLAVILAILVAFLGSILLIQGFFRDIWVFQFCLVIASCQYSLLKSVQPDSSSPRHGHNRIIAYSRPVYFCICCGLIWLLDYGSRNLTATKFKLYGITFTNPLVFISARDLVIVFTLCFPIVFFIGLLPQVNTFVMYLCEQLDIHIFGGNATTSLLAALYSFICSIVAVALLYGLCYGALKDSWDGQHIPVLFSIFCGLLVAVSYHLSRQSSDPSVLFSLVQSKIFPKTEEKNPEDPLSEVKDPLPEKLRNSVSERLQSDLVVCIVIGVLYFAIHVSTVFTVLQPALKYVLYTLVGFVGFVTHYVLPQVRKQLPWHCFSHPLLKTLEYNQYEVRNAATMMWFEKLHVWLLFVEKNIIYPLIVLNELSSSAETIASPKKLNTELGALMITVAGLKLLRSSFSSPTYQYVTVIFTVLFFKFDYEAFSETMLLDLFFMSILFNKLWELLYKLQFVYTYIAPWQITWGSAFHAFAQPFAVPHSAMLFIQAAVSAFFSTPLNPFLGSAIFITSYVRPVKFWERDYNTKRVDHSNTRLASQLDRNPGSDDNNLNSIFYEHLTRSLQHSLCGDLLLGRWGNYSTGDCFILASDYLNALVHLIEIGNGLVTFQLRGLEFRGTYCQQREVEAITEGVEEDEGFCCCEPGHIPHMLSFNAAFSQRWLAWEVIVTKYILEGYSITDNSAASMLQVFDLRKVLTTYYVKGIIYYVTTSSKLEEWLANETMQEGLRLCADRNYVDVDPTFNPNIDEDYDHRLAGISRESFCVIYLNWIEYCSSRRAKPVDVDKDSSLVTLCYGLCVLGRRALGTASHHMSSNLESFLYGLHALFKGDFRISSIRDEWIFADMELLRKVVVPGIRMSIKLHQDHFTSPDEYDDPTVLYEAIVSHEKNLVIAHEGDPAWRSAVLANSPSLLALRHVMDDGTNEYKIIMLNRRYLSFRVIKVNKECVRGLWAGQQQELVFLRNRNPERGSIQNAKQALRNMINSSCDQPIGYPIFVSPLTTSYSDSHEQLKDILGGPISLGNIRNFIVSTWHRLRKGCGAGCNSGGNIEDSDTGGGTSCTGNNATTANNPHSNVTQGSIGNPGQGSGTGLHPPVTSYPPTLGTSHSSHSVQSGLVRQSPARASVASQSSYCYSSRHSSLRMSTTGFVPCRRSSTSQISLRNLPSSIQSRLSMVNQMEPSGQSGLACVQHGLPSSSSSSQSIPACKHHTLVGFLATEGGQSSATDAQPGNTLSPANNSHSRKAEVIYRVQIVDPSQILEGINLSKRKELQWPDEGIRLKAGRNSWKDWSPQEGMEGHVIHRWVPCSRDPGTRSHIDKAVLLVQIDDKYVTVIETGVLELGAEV
UniProt Q9UKK3: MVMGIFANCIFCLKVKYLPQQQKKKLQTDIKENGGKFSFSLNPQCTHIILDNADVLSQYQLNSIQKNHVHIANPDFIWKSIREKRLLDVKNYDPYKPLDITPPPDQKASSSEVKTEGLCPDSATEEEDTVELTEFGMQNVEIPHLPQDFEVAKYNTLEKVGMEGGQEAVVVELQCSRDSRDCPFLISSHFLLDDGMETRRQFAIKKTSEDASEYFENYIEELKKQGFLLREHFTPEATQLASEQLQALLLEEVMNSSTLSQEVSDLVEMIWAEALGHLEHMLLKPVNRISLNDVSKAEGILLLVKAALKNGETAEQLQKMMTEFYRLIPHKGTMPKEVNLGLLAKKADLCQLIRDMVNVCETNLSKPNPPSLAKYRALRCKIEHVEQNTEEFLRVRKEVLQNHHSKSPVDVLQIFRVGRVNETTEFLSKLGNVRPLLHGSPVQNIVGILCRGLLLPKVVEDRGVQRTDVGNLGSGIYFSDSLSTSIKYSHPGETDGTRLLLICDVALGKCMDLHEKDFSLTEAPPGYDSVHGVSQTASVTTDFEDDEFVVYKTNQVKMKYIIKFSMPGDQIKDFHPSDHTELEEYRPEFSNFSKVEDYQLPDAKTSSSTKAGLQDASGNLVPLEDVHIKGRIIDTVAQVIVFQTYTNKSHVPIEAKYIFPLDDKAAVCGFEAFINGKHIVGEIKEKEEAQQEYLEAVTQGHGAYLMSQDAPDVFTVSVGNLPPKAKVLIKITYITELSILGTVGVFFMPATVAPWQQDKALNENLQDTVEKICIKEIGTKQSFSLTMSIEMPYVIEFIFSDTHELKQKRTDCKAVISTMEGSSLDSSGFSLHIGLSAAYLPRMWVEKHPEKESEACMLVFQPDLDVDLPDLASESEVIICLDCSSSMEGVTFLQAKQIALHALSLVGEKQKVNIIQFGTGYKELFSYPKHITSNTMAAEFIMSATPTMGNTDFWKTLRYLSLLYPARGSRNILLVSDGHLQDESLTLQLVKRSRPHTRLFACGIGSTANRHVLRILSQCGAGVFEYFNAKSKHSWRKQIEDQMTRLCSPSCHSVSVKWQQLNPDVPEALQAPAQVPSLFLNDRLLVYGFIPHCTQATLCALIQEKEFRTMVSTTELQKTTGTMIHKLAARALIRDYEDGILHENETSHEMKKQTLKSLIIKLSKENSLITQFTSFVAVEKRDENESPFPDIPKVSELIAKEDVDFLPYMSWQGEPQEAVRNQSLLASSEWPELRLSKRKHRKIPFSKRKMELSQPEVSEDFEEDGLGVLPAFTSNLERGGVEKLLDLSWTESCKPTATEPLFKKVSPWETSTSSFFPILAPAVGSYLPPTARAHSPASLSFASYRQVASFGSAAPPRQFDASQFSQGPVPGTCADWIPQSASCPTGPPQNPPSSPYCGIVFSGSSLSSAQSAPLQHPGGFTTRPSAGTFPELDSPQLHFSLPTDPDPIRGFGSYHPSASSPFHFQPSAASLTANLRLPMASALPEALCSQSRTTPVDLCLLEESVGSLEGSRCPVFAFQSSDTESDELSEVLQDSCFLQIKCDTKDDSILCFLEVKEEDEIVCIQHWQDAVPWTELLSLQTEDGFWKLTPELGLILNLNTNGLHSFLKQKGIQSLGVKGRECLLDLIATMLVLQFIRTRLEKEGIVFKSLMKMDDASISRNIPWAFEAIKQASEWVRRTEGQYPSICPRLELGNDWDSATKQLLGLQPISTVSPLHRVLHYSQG
UniProt Q16549: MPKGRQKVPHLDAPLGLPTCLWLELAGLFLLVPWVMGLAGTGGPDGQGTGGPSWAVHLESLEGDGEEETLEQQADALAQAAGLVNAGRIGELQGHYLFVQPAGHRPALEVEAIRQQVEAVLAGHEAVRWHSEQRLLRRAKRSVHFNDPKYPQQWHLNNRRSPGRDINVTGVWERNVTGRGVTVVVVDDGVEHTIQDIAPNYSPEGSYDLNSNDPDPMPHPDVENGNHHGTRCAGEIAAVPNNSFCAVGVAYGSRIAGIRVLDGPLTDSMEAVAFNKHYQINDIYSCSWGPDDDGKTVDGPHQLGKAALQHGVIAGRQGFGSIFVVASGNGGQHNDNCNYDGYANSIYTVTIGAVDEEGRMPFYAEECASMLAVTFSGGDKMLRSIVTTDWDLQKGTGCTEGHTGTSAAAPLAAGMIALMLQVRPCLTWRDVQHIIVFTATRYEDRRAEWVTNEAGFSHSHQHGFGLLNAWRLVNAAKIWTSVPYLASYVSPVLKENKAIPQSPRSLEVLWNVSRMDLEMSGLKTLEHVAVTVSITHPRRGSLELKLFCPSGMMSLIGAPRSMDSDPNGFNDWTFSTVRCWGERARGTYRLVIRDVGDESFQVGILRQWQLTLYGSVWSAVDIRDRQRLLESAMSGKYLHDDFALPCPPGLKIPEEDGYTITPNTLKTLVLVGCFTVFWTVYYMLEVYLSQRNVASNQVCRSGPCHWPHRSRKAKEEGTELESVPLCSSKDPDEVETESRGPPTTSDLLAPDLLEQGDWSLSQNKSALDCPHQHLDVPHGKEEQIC
UniProt Q58A45: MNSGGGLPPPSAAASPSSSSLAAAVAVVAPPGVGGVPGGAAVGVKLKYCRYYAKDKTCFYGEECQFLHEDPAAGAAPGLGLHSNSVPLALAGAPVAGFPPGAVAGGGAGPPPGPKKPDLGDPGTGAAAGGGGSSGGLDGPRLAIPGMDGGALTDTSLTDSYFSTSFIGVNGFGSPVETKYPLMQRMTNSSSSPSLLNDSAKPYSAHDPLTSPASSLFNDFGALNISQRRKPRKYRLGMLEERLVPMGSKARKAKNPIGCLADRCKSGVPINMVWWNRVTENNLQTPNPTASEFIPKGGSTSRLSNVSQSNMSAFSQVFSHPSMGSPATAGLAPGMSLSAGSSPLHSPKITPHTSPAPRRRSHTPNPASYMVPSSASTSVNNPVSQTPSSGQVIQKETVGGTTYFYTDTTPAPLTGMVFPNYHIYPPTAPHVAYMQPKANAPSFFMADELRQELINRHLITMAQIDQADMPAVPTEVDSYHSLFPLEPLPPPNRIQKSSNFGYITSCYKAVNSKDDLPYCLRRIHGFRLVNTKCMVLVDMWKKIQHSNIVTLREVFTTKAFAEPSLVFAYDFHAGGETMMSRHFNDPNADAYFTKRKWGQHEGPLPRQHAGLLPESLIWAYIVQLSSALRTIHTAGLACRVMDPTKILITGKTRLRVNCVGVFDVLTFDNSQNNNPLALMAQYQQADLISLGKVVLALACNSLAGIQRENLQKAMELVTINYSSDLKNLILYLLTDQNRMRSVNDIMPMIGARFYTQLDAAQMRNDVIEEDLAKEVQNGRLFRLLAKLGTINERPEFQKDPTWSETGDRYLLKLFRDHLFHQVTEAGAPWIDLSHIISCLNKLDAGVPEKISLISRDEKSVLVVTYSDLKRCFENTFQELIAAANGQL

Key:
Test in all cases: log2 fold change, soluble protein after heating vs DMSO (PISA); higher = thermal stabilisation; K562 cells, 10 uM, 30 min; active = over 0.2 and 3.5 SD of the protein, either way, in both replicates (recomputed)
[1] = compound: CS(=O)(=O)c1ccc(-c2cnc(N)c(C(=O)Nc3ccccc3)n2)cc1
Summary of the method: (§1)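 K562 cells at 2×10^6 cells/mL were exposed to 10 μM compound for 30 min, then aliquots were heated for 3 min across 48°C-58°C, pooled, and extracted in PBS containing 0.5% NP-40 at 4°C. The supernatant after 21,000xg for 90 min was taken as soluble protein and measured by TMTpro 16plex LC-MS/MS with channel sums equalised. Thermal stability is reported relative to control samples, with values from duplicates. Fold changes are given on a log2 scale.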

tozasertib = compound: Cc1cc(Nc2cc(N3CCN(C)CC3)nc(Sc3ccc(NC(=O)C4CC4)cc3)n2)n[nH]1 [tozasertib]
Summary of the method: as §1

[2] = compound: C[C@H](C1=CC=C(C=C1)C(=O)NC2=C3C=CNC3=NC=C2)N
Summary of the method: as §1

duvelisib = compound: C[C@H](Nc1ncnc2nc[nH]c12)c1cc2cccc(Cl)c2c(=O)n1-c1ccccc1 [duvelisib]
Summary of the method: as §1

gandotinib = compound: Cc1cc(Nc2cc(CN3CCOCC3)c3nc(C)c(Cc4ccc(Cl)cc4F)n3n2)n[nH]1 [gandotinib]
Summary of the method: as §1

[3] = compound: Cc1cc(SCc2sc(-c3ccc(C(F)(F)F)cc3)nc2C)ccc1OCC(=O)O
Summary of the method: as §1

bafetinib = compound: Cc1ccc(NC(=O)c2ccc(CN3CC[C@H](N(C)C)C3)c(C(F)(F)F)c2)cc1Nc1nccc(-c2cncnc2)n1 [bafetinib]
Summary of the method: as §1

[4] = compound: Cc1cccc(CC(=O)N2CCc3c2ccc(-c2cn(C)c4ncnc(N)c24)c3F)n1
Summary of the method: as §1

dasatinib = compound: Cc1nc(Nc2ncc(C(=O)Nc3c(C)cccc3Cl)s2)cc(N2CCN(CCO)CC2)n1 [dasatinib]
Summary of the method: as §1

[5] = compound: Cn1cc(-c2ccc3c(c2)CCN3C(=O)Cc2cccc(C(F)(F)F)c2)c2c(N)ncnc21
Summary of the method: as §1

mubritinib = compound: FC(F)(F)c1ccc(/C=C/c2nc(COc3ccc(CCCCn4ccnn4)cc3)co2)cc1 [mubritinib]
Summary of the method: as §1

crizotinib = compound: C[C@@H](Oc1cc(-c2cnn(C3CCNCC3)c2)cnc1N)c1c(Cl)ccc(F)c1Cl [crizotinib]
Summary of the method: as §1

[6] = compound: C[C@@H]1COCCN1C2=NC(=NC(=C2)C3(CC3)S(=O)(=O)C)C4=C5C=CNC5=CC=C4
Summary of the method: as §1

doramapimod = compound: Cc1ccc(-n2nc(C(C)(C)C)cc2NC(=O)Nc2ccc(OCCN3CCOCC3)c3ccccc23)cc1 [doramapimod]
Summary of the method: as §1

ispinesib = compound: Cc1ccc(C(=O)N(CCCN)[C@@H](c2nc3cc(Cl)ccc3c(=O)n2Cc2ccccc2)C(C)C)cc1 [ispinesib]
Summary of the method: as §1

nilotinib = compound: Cc1cn(-c2cc(NC(=O)c3ccc(C)c(Nc4nccc(-c5cccnc5)n4)c3)cc(C(F)(F)F)c2)cn1 [nilotinib]
Summary of the method: as §1

[7] = compound: Cc1nc(Nc2n[nH]c3c2CN(C(=O)N[C@H](CN(C)C)c2ccccc2)C3(C)C)c2sccc2n1
Summary of the method: as §1

[8] = compound: Cc1ncc(-c2ccnc(Nc3ccc(S(C)(=O)=O)cc3)n2)n1C(C)C
Summary of the method: as §1

[9] = compound: Cn1cc(-c2ccc3nnc(C(F)(F)c4ccc5ncccc5c4)n3n2)cn1
Summary of the method: as §1

tipifarnib = compound: Cn1cncc1[C@@](N)(c1ccc(Cl)cc1)c1ccc2c(c1)c(-c1cccc(Cl)c1)cc(=O)n2C [tipifarnib]
Summary of the method: as §1

Measured: log2 fold change

PCDH1 isoform 2 (UniProt Q08174)
inactive: [1] 0.02 | tozasertib -0.111

PABPN1 (UniProt Q86U42)
inactive: [2] 0.244 | duvelisib 0.226 | gandotinib -0.262 | [3] -0.054 | bafetinib -0.064 | [4] -0.305 | dasatinib -0.031 | [5] -0.334 | mubritinib -0.266

PCMTD1 (UniProt Q96MG8)
inactive: crizotinib -0.302 | [6] 0.193 | duvelisib 0.395 | [3] 0.045 | doramapimod -0.054 | ispinesib -0.062 | bafetinib -0.286 | nilotinib -0.023 | [7] 0.147 | dasatinib -0.174 | [8] 0.093 | [9] -0.245

Retrieved one by one from the entries so far (two):
PCMTD1 (UniProt Q96MG8)
inactive: crizotinib -0.302 | [6] 0.193 | duvelisib 0.395 | [3] 0.045 | doramapimod -0.054 | ispinesib -0.062 | bafetinib -0.286 | nilotinib -0.023 | [7] 0.147 | dasatinib -0.174 | [8] 0.093 | [9] -0.245

PCDH1 isoform 2 (UniProt Q08174)
inactive: [1] 0.02 | tozasertib -0.111

The listing continues:

PCSK6 isoform 7 (UniProt P29122)
inactive: [1] -0.006 | [2] 0.188 | gandotinib -0.214 | bafetinib -0.069 | [4] -0.21 | nilotinib -0.268 | [7] 0.134 | [8] -0.121 | [5] -0.12 | tipifarnib 0.002 | mubritinib 0.002

PCF11 (UniProt O94913)
inactive: crizotinib -0.137 | [2] 0.211 | gandotinib -0.149 | doramapimod 0.051 | ispinesib -0.533 | bafetinib -0.099 | [4] 0.078 | [5] -0.095 | [9] 0.007 | tipifarnib 0.168 | mubritinib 0.179

PDE3B (UniProt Q13370)
inactive: crizotinib -0.173 | [6] -0.395 | doramapimod 0.147 | mubritinib -0.338

PCNX1 (UniProt Q96RV3)
inactive: [6] 0.257 | bafetinib -0.112 | nilotinib 0.007 | [7] 0.009 | [8] 0 | tipifarnib 0.305 | mubritinib -0.019

PAXBP1 (UniProt Q9Y5B6)
inactive: crizotinib -0.474 | gandotinib 0.072 | tozasertib 0.123 | doramapimod 0.043 | ispinesib -0.092 | bafetinib 0.054 | [4] -0.064 | [9] 0.102

PCBP2 (UniProt F8VZX2)
inactive: crizotinib -0.273 | [2] 0.234 | [3] 0.065 | doramapimod -0.107 | ispinesib -0.124 | bafetinib 0.029 | nilotinib 0.029 | [7] -0.112 | dasatinib -0.144 | [8] 0.049 | [5] -0.022 | [9] -0.196 | mubritinib -0.153

PARP4 (UniProt Q9UKK3)
inactive: [1] -0.225 | duvelisib -0.086 | [3] 0.049 | dasatinib 0.013

PCSK7 (UniProt Q16549)
inactive: tipifarnib -0.056

PAN3 (UniProt Q58A45)
inactive: gandotinib 0.11 | ispinesib -0.353 | [4] 0.015 | [9] -0.024

PACSIN3 (UniProt Q9UKS6)
inactive: crizotinib -0.208 | [6] -0.136 | doramapimod 0.099 | ispinesib -0.111 | [9] -0.02
